# Results: patent publication US20180162952A1
# Protein sequences, listed by entry. Tags and fused reporters are not part of them. Lines headed by an entry give the natural chain unless they say otherwise; changes in a name come on top.
# UniProt Q13308: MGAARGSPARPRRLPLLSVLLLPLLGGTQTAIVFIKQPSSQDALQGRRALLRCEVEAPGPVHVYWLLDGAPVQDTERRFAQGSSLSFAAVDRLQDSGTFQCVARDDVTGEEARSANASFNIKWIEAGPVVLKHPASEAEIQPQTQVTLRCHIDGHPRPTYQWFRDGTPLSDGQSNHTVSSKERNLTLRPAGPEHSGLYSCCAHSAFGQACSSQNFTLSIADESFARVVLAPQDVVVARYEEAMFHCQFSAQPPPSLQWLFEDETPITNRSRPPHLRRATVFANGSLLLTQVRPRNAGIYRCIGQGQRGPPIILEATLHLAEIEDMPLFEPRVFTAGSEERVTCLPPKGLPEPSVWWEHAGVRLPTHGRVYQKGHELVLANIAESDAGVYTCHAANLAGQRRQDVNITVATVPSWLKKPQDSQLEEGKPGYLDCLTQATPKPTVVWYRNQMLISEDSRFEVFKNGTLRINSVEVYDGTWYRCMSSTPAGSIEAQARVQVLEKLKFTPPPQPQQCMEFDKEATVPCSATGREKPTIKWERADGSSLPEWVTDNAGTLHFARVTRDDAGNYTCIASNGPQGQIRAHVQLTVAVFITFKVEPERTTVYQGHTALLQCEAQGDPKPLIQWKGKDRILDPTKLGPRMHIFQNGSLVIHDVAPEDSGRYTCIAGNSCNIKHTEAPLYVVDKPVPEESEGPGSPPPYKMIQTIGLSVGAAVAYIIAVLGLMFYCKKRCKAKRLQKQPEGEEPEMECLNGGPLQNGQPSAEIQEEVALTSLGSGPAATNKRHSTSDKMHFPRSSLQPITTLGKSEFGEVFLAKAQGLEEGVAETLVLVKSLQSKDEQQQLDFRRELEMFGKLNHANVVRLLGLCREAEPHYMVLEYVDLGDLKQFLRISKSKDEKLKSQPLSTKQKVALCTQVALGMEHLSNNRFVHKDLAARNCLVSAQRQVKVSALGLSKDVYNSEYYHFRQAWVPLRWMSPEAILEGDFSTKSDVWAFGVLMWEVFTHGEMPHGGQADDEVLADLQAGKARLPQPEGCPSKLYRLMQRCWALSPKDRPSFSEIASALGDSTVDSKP
# Positions count from the first letter of the chain named. Results are given in words; binding and its absence hold for the method and conditions named. Some binding calls cover weakened binding; strength is not graded here.
# B1: SC6.23 (antibody, V domains shown)
# VH: QVTLKESGPGILKPSQTLSLTCSFSGFSLSTSNMGVGWIRQPSGKGLEWLAHIWWDDDKYYNPSLKSQLTISKDTSRNQVFLKITSVDTEDTATYYCVRSNYGYAWFAYWGQGTLVTVSA
# VL: DIKMTQSPSSMYASLGERVTITCKASQDIYPYLNWFQQKPGKSPKTLIYRTNRLLDGVPSRFSGSGSGQDYSLTISSLDYEDMGIYYCLQYDEFPLTFGAGTKLELK
# B2: SC6.2.35 (antibody, V domains shown)
# VH: QVQMQQSGAELMKPGASVKLSCKATGYTFTGYWIEWVKQRPGHGLEWIGEILPGSGRSNSNEKFKGKATFTADTSSNTAYMQLSSLTTEDSAIYYCARGKLSWGQGTLVTVSA
# VL: DIVLTQSPASLAVSLGQRATISCRASESVDSFGNSFMHWYQQKPGQPPKLLIYAASNLGSGVPARFSGSGSGTDFSLNIHPVEEDDSAMYFCQQSKEVPRTFGGGSRLEIKR
# B3: SC6.7 (antibody, V domains shown)
# VH: QVQLQQSGAELGRPGASVKLSCKDSGYTITIYWMQWVKQRPGQGLEWIGAIYPGDGDTRYPQKFKGKSTLSADKSSNTASMHLSSLASDDSAVYYCSRGGSTNYDYDGFAYWGQGTLVTVSA
# VL: DIQMTQSPASLSVSVGETVTITCRASENIYSNLAWYQQKQGKSPQLLVNAATNLADGVSSRFRGSGSGTQYSLKINSLQSEDFGSYYCQHFWITPFTFGSGTKLERK
# B4: SC6.14 (antibody, V domains shown)
# VH: QVQLQQPGAELVKPGASVKLSCKASGYTFTSYWMHWVKQRPGQGLEWIGEINPSNGRSNYNEKFKSKATLTVDKSSSTAYMQLSSLTSEDSAVYFCAHYYDGSYGFFDYWGQGTTLTVSS
# VL: SIVLTQSLKFLLVSAGDRVTMTCKASQSVTNDVAWYQQKPGQSPKLLIYYASKHYTGVPDRFTGSGYGTDFTFTISTVQAEDLAVYFCQQDYSSPYTFGGGTKLEIKR
# B5: SC6.15 (antibody, V domains shown)
# VH: EVKLLESGGGLVQPGGSLKVSCTASGFDFSRYWMSWVRQAPGKGLEWIGEINPDSSTINYTPSLKDKFIISRDNAKNTLYLQMSKVRSEDTALYYCARPGYGNLFVYWGQGTLVTVSS
# VL: DIVLTQSPASLAVSLGQRATISCRASQSVSTSTSIYMHWYQQKPGQPPKLLIKYASNLESGVPARFSGSGSGTEITLNIHPVEEEDTATYYCQHSWEIPWTFGGGTKLEIK
# B6: SC6.19 (antibody, V domains shown)
# VH: EVKLLESGGGLVQPGGSLRLSCAASGFDFSKDWMSWVRQAPGKGLEWIGEINPDSSTINYAPALKDKFIISRENAKNTLYLQMNKVRSEDTALYYCARWSTGLDYWGQGTTLTVSS
# VL: DIVMTQSPSSLSVSAGEKVTMSCKSSQSLLNSGNPKNYLAWYQQKPGQPPKLLIYGASTRGSGVPDRFTGSGSGTDFTLTISSVQAEDLAVYYCQNDHTFPYTFGGGTKLEIKR
# B7: SC6.20 (antibody, V domains shown)
# VH: QVQLQQSGPELVKPGASVKISCKASGYPFSTSWMNWVKQRPGKGLEWIGRIYLGDGDTNYNGKFTGKATLTADKSSSTVYMQLSSLTSEDSAVYFCARWRGDYDYWGQGTTLTVSS
# VL: DIQMTQTPSSLSASLGDRVTINCRASQGLSNYLNWYQQKPDGTVKLLIYYASILHSGVPSRFTGSGSGTDYSLTISTLEQEDIGTYFCQQGNTLPWTFGGGTKLEIK
# B8: SC6.21 (antibody, V domains shown)
# VH: DVQLQESGPGLVKPSQTLSLTCSVPDYSITSDYHWHWIRQFPGNKLEWMGYISSRGSTNYNPSLKNRISITHDTSENQFFLKLTSVTTEDSATYYCAGLSQLALDYWGQGTTLTVSS
# VL: DIVMSQSPSSLAVSVGEKVTLSCKSSQSLLYSSTQNNYLAWYQQTPGQSPKLLIYWASTRESGVPDRFTGSGSGTDFTLTISSVKAEDLAVYYCQQYYSYPWTFGGGTKLEIK
# B9: SC6.24 (antibody, V domains shown)
# VH: QVQLQQSGPEVVRPGVSVKISCKGSGYTFTDYAVHWVKLSHAKSLEWIGVISTYNDYTYNNQDFKGKATMTVDKSSSTAYMELARLTSEDSAIYYCARGNSYFYALDYWGQGTSVTVSS
# VL: DIVLTQSPASLAVSLGQRATISCRASESVDSYGKSFMHWYQQRPGQPPKLLIYRASNLESGIPARFSGSGSRTDFTLTINPVEADDVATYYCQQSNEDPWTFGGGTKLEIK
# B10: SC6.29 (antibody, V domains shown)
# VH: B5 VH with L18Q, V20L, T23A, I58V, S118A
# VL: B5 VL with A12T, S34F, I35N, H38N, P44L, E74D, I75F, T87I
# B11: SC6.41 (antibody, V domains shown)
# VH: EVQLQQSGAESVRSGASVKLSCTASGLNIKDYYMHWVNLRPEQGLEWIGWIDPENGDTEYAPEFQGKATMTADTSSNTAYLQLSSLTSEDTAVYYCNACNYGSAYGYWGQGTTLTVSS
# VL: DIVLTQATPSVPVTPGESVSISCRSSKSLLHTKGDTYLYWFLQRPGQSPQLLIYRMSNLASGVPDRFSGSGSGTVFTLRISRVEAEDVGVYYCMQHLEYPFTFGSGTKLEIKR
# B12: SC6.58 (antibody, V domains shown)
# VH: EVKLLESGGGLVQPGGSLKLSCAASGFDFSRYWMSWVRQAPGKGLEWIGDLNPDSSAINYTPSLKDKFIISRDNAKNTLYLQMSKVRSEDTALYYCTLITTLVPYTMDFWGQGTSVTVSS
# VL: ETTVTQSPASLSMAIGEKVTIRCITNTDIDDDMNWYQQKPGEPPKLLISEGNGLRPGVPSRFSSSGYGTDFVFTIENMLSEDVADYYCLQSDNLPLTFGSGTKLEIK
# B13: SC6.3 (antibody, V domains shown)
# VH: EVKLLESGGGLVQPGGSLKLSCAASGFDFSKDWMSWVRQAPGKGLEWIGEINPDSRTINYAPSLKDKFIISRENAKNTLYLQMSKVRSEDTALYYCARWDYDGGMDYWGQGTSVTVSS
# VL: B6 VL with S32G, P35Q, K36Q, Y38S, G61E, T78A, F100Y, K109E
# B14: hSC6.41 (antibody, human IgG1, V domains shown)
# VH: QVQLVQSGAEVKKPGASVKVSCKASGYTFKDYYMHWVRQAPGQGLEWMGWIDPENGDTEYAPEFQGRVTMTRDTSTSTVYMELSSLRSEDTAVYYCNACNYGSAYGYWGQGTTLTVSS
# VL: DIVMTQSPLSLPVTPGEPASISCRSSKSLLHTKGDTYLYWFLQKPGQSPQLLIYRMSNRASGVPDRFSGSGSGTDFTLKISRVEAEDVGVYYCMQHLEYPFTFGQGTKLEIKR
# B15: hSC6.58 (antibody, human IgG1, V domains shown)
# VH: EVQLVESGGGLVQPGGSLRLSCAASGFDFSRYWMSWVRQAPGKGLEWIGDLNPDSSAINYVDSVKGRFTISRDNAKNSLYLQMNSLRAEDTAVYYCTLITTLVPYTMDFWGQGTSVTVSS
# VL: ETTLTQSPAFMSATPGDKVNISCITNTDIDDDMNWYQQKPGEAAILLISEGNGLRPGIPPRFSGSGYGTDFTLTINNIESEDAAYYFCLQSDNLPLTFGSGTKLEIKR
# Molecular target: hPTK7-His (soluble His-tagged human PTK7 extracellular domain) (human) (UniProt Q13308)
# Assay: Biacore surface plasmon resonance, antigen concentration series
row,Binder,binding
1,B1,binds

# Molecular target: hPTK7-His (soluble His-tagged human PTK7 extracellular domain) (human) (UniProt Q13308)
# Assay: ForteBio bio-layer interferometry, one antigen concentration (400 nM)
row,Binder,binding
1,B2,binds

# Molecular target: hPTK7-His (soluble His-tagged human PTK7 extracellular domain) (human) (UniProt Q13308)
# Assay: screening on immobilized human PTK7; members named in paragraph 345
row,Binder,binding
1,B2,binds
2,B1,binds
3,B3,binds
4,B4,binds
5,B5,binds
6,B6,binds
7,B7,binds
8,B8,binds
9,B9,binds
10,B10,binds
11,B11,binds
12,B12,binds
13,B13,binds

# Molecular target: hPTK7-His (soluble His-tagged human PTK7 extracellular domain) (human) (UniProt Q13308)
# Assay: SPR, Biacore
row,Binder,binding
1,B14,binds
2,B15,binds
